According to PubChem BioAssay AID1688 (National Center for Advancing Translational Sciences (NCATS), 2009):
Hit rate of the full screen: of about 220,000 compounds, about 2,400 (1.1%) were called active. This list was built around the results that the source calls inconclusive (neither active nor inactive); the mix of calls is not that of the screen. Calls follow the shape of the dose curve; as a rule, active = well fitted inhibition curve with a large enough effect; inconclusive = small, poorly fitted or top-dose-only effect, or effect the other way; inactive = no such curve, though single readings can be large or run the other way. Where the call is inconclusive, the potency comes from a doubtful curve fit.

assay: qHTS Multiplex Assay to Identify Dual Action Probes in a Cell Model of Huntington: Aggregate Formation (GFP); settings: PC12 HttQ103-GFP aggregates, Acumen cytometry, 40 h; activity change, negative = inhibition: at 46.1 µM (top of the series) unless noted; also: nearly all actives have a fitted effect of over 60% in size
Summary of the method: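 Compounds (qHTS titration) were added to PC12 cells expressing an ecdysone-driven HTT exon 1 Q103–GFP fusion after induction with 100 nM tebufenozide. Aggregate formation was measured as GFP objects in cell lysates.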
% is scaled to controls: 0 for no effect and ±100 for the full control effect; potency is read from the fitted curve at half-maximal effect.

Row | SMILES | Potency | activity change, negative = inhibition
1 | Cc1cccc(CN2CCc3c(OCC(=O)N4CCCc5ccccc54)cccc3C2=O)c1 | inconclusive: 35.5 µM [inhibitor, single point] | 
2 | CC1=NN(c2ccc([N+](=O)[O-])cc2)C(c2ccccc2)C1 (configuration not stated) | inconclusive: 4.47 µM [inhibitor, full curve, poor fit] | 
3 | Cc1oc2c(c1C(=O)c1ccc(Cl)cc1)C(=O)C(=O)c1ccccc1-2 | inconclusive: 20 µM [inhibitor, single point] | 
4 | Clc1cccc(-c2cc3nc4c(c(NCc5ccco5)n3n2)CCCC4)c1 | inconclusive: 35.5 µM [inhibitor, single point] | 
5 | Cn1c(SCCOc2ccccc2Cl)nnc1-c1ccncc1 | active: 0.794 µM | 
6 | Cc1cccc(C(=O)NC(=S)NNC(=O)c2ccc(Cl)cc2)c1 | inconclusive: 7.94 µM [inhibitor, partial curve] | 
7 | Cc1cc(C(=O)COC(=O)c2cccnc2Cl)c(C)n1-c1c(C)n(C)n(-c2ccccc2)c1=O | inconclusive: 6.31 µM [activator, full curve, poor fit] | 
8 | COc1ccc(N(CC(=O)Nc2ccccc2C(=O)NCc2ccco2)S(C)(=O)=O)cc1 | inactive | 
9 | Cn1c2ccccc2c(=O)c2c(O)cccc21 | inconclusive: 15.8 µM [inhibitor, partial curve] | 
10 | CCCc1ccc(Oc2c(-c3ccc(O)c(C)c3O)n[nH]c2C)cc1 | inconclusive: 15.8 µM [inhibitor, single point] | 
11 | CCCn1c(=O)c2c(nc(Br)n2CCC)n(C)c1=O | inactive | 
12 | O=C(CSc1ccccc1C(=O)O)NC12CC3CC(CC(C3)C1)C2 |  | inactive: 0.87% [at 9.22 µM]
13 | O=C(Nc1ccccn1)C(NS(=O)(=O)c1cccc2nsnc12)c1ccccc1 (configuration not stated) | inconclusive: 3.55 µM [inhibitor, partial curve] | 
14 | Cn1c(=O)[nH]c(=O)c2c1nc(NCCCn1ccnc1)n2Cc1cccc(Br)c1 | inconclusive: 2.24 µM [activator, partial curve, poor fit] | 
15 | COc1ccc(/C=C2\C(=O)ON=C2c2cccc([N+](=O)[O-])c2)cc1 | inactive | 
16 | Cc1cc(SCC(=O)N(C)c2c(N)n(Cc3ccccc3)c(=O)[nH]c2=O)nc2ccccc12 | inconclusive: 11.2 µM [activator, partial curve] | 
17 | COC(=O)c1ccc(O)c(Sc2cc(C(=O)OC)ccc2O)c1 | inconclusive: 35.5 µM [inhibitor, single point] | 
18 | CCCCOc1ccc(CC2CCC(=O)NC2=O)cc1 (configuration not stated) |  | inactive: -1.69% [at 9.22 µM]
19 | Cc1cc2oc(C(=O)NCc3ccncc3)c(C)c2cc1C | inconclusive: 22.4 µM [inhibitor, partial curve, poor fit] | 
20 | CCOC(=O)c1cnn(-c2ccccc2)c1-n1cccc1 | inactive | 
21 | Cc1cc(C)c(NC(=O)CN2CCN3CCCC3C2)c(C)c1 (configuration not stated) | inconclusive: 3.55 µM [activator, partial curve, poor fit] | 
22 | CCN1C(=O)c2cccc3c(S(=O)(=O)NCc4cccnc4)ccc1c23 | inactive | 
23 | CCCn1c(N)c(C(=O)NS(=O)(=O)c2ccc(C)cc2)c(=O)n(C)c1=O | inconclusive: 12.6 µM [inhibitor, single point] | 

Arranged by length of the SMILES (low to high): part of the list above.
Row | SMILES | Potency | activity change, negative = inhibition
20 | CCOC(=O)c1cnn(-c2ccccc2)c1-n1cccc1 | inactive | 
2 | CC1=NN(c2ccc([N+](=O)[O-])cc2)C(c2ccccc2)C1 (configuration not stated) | inconclusive: 4.47 µM [inhibitor, full curve, poor fit] | 
4 | Clc1cccc(-c2cc3nc4c(c(NCc5ccco5)n3n2)CCCC4)c1 | inconclusive: 35.5 µM [inhibitor, single point] | 
7 | Cc1cc(C(=O)COC(=O)c2cccnc2Cl)c(C)n1-c1c(C)n(C)n(-c2ccccc2)c1=O | inconclusive: 6.31 µM [activator, full curve, poor fit] | 

Later entries:

Row | SMILES | Potency | activity change, negative = inhibition
24 | O=S(=O)(Nc1cccc2ncccc12)c1cccs1 | active: 12.6 µM | 
25 | C/C(=N\N=C(N)N)c1cccc(Cl)c1 | active: 5.01 µM | 
26 | O=C(NC1CCCC1)c1cc2nc(-c3ccccc3)cc(-c3ccccc3)n2n1 | active: 3.55 µM | 
27 | Cc1ccc([N+](=O)[O-])cc1N/C=C1\CCCCC1=O | inconclusive: 3.55 µM [inhibitor, partial curve] | 
28 | CCOC(=O)CC(c1ccc(N)cc1)n1c(C)ccc1C (configuration not stated) | inconclusive: 11.2 µM [activator, single point] | 
29 | Cc1c(Cl)cccc1NC(=O)CNCc1ccccc1F | inactive | 
30 | Cc1c(Cl)cccc1-c1ccc(C(=O)N2CCN(c3ccc([N+](=O)[O-])cc3)CC2)o1 | inconclusive: 8.91 µM [inhibitor, partial curve] | 
31 | C=CCn1c(O)c(N=NC(=O)CNC(=O)/C=C/c2ccco2)c2ccccc21 | inactive | 
32 | CC(=O)Nc1cccc(NC(=O)c2ccc([N+](=O)[O-])cc2Cl)c1 | inactive | 
33 | O=C(Nc1ccc2ccccc2c1)Nc1ccc2snnc2c1 | inconclusive: 20 µM [inhibitor, single point] | 
34 | CCn1c(=S)[nH]c2cc(S(=O)(=O)N3CCCCC3)ccc21 | inconclusive: 8.91 µM [activator, single point] | 
35 | CCCCCn1c(SCCC(C)C)nc2c1c(=O)[nH]c(=O)n2C | inconclusive: 2.24 µM [inhibitor, partial curve] | 
36 | Cc1ccccc1S(=O)(=O)Cc1ccc(C(=O)NCCN2CCN(Cc3ccccc3)CC2)o1 | inconclusive: 5.62 µM [inhibitor, single point] | 
37 | COc1cc(C2CC(=O)NC3=C2C(=O)CC(C)(C)C3)ccc1O (configuration not stated) | inconclusive: 5.62 µM [activator, single point] | 
38 | CCOc1cc(/C=N/NC(=S)Nc2ccccc2C(F)(F)F)ccc1OCC(=O)N1CCOCC1 | inactive | 
39 | Cc1ccc(S(=O)(=O)Nc2cccc(CP(=O)(c3ccccc3)c3ccccc3)c2)cc1 |  | inactive: -23.3% [at 9.22 µM]
40 | O=C(Nc1ccn(-c2ccccc2)n1)c1ccc(S(=O)(=O)N2CCCCCC2)cc1 | inconclusive: 35.5 µM [inhibitor, single point] | 
41 | CCOc1ccccc1NC(=O)c1ccc(F)c(S(=O)(=O)N2CCC3(CC2)OCCO3)c1 | inconclusive: 2 µM [inhibitor, partial curve] | 
42 | CC(=O)Nc1ccc(NC2=C/C(=N/S(=O)(=O)c3cccs3)c3ccccc3C2=O)cc1 | active: 5.62 µM | 
43 | COc1ccc(CN(C(=O)c2ccc(-c3ccccc3)[nH]2)C(C(=O)NC(C)(C)C)c2ccncc2)cc1 (configuration not stated) | inconclusive: 35.5 µM [inhibitor, single point] | 
44 | CCOc1cc(C(=O)N2CCc3cc(OC)c(OC)cc3C2)ccc1OC(F)F | inconclusive: 3.16 µM [inhibitor, partial curve] | 
45 | Cc1ccccc1NC(=O)c1ccccc1O | inconclusive: 28.2 µM [inhibitor, single point] | 
46 | O=C(OCCN1C(=O)c2cccc3c(N4CCOCC4)ccc(c23)C1=O)c1ccc(Cl)cc1 | inconclusive: 0.794 µM [activator, single point] | 

Row | SMILES | Potency | activity change, negative = inhibition
47 | COc1ccccc1C(=O)Nc1ccc(Oc2ncnc3sc(-c4ccccc4)cc23)cc1 | inconclusive: 1.12 µM [activator, partial curve] | 
48 | CCN1C(=O)/C(=C\N2CCN(c3ccccc3)CC2)SC1=S | inconclusive: 2.82 µM [inhibitor, partial curve] | 
49 | Cc1cnc(C(=O)Nc2nnc(SCc3c(Cl)cccc3Cl)s2)cn1 | inconclusive: 12.6 µM [inhibitor, single point] | 
50 | CC/C(=C\C1CCCCC1)C(NP(=O)(c1ccccc1)c1ccccc1)c1ccccc1 (configuration not stated) | inconclusive: 35.5 µM [inhibitor, single point] | 
51 | CSc1oc(-c2ccc(F)cc2)nc1S(=O)(=O)c1ccccc1 | inactive | 
52 | O=C(NC(NC1CCS(=O)(=O)C1)C(=O)c1ccccc1)c1ccc(Cl)cc1 (configuration not stated) | inconclusive: 35.5 µM [activator, single point] | 
53 | COC(=O)c1sccc1NC(=O)c1cc(-c2ccc(C)cc2)nc2ccccc12 | inactive | 
54 | Cc1cc(C(=O)Nn2c(-c3ccc(Br)cc3)nc3ccccc3c2=O)ccc1[N+](=O)[O-] | active: 35.5 µM | 
55 | CC(C)(C)OC(=O)N1CCC[C@H]1c1nnc(SC/C=C/c2ccccc2)o1 | inactive | 
56 | O=C(COc1nncc2ccccc12)Nc1ccc(F)c(F)c1 | inconclusive: 11.2 µM [activator, partial curve] | 
57 | COc1ccc(C(C#N)C2(C)OCCO2)cc1OC (configuration not stated) | active: 2.51 µM | 
58 | CCCCOC(=O)C(C)Nc1n[nH]c(=S)[nH]c1=O (configuration not stated) | inconclusive: 0.501 µM [activator, full curve, poor fit] | 
59 | N#CC(C#N)=C1C=CC=CN1/C(=C\c1ccco1)C(=O)c1ccc(-c2ccccc2)cc1 | active: 7.08 µM | 
60 | COc1ccc(CC(=O)Nc2oc(-c3ccccc3)c(-c3ccccc3)c2C#N)cc1OC | inconclusive: 35.5 µM [inhibitor, partial curve, poor fit] | 
61 | COC(=O)CC(c1ccc(C#N)cc1)n1c(C)ccc1C (configuration not stated) | inconclusive: 11.2 µM [activator, partial curve] | 
62 | CCNc1nc(NCC)n2c(SCC(=O)NC34CC5CC(CC(C5)C3)C4)nnc2n1 | inconclusive: 0.501 µM [activator, single point] | 
63 | CCOC(=O)Cn1nc(C)c(NC(=O)COc2cccc(Cl)c2)c1C | inconclusive: 11.2 µM [inhibitor, partial curve] | 
64 | S=C(NCC1CCCO1)N1CCN(c2ccc(Cl)c(Cl)c2)CC1 (configuration not stated) | inconclusive: 15.8 µM [inhibitor, single point] | 
65 | N#CCCN1CCN(S(=O)(=O)c2ccc(S(=O)(=O)N3CCOCC3)cc2)CC1 | inconclusive: 5.62 µM [inhibitor, single point] | 
66 | Cc1ccc(NC2=C(Cl)C(=O)OC2OC(=O)c2ccco2)cc1C (configuration not stated) | inconclusive: 35.5 µM [activator, partial curve] | 
67 | CS(=O)(=O)Nc1ccc(C2=NN(C(=O)C3CCCCC3)C(c3cccs3)C2)cc1 (configuration not stated) | inconclusive: 0.112 µM [activator, full curve, poor fit] | 
